Results reported in article doi:10.1101/2020.11.04.368498.
These are yes or no findings as the source states them, for the method shown. Some entries that bind do so weakly or less than the wild type. Sequences can lack the tags named with a protein.

Experiments:
Assay in all cases: pull-down
[1] = target: T1, FLAG-tagged SRSF5 (UniProt Q13243)
T1 sequence: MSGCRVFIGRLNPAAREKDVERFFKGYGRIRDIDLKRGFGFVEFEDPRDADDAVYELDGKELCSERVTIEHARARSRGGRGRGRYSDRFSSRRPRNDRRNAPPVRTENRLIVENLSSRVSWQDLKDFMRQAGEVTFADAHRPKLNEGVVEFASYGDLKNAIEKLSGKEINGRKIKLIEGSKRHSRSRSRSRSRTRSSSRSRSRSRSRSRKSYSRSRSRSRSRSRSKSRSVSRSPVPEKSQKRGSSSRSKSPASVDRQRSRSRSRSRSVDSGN

[2] = target: T2, FLAG-tagged SRSF8 (UniProt Q9BRL6)
T2 sequence: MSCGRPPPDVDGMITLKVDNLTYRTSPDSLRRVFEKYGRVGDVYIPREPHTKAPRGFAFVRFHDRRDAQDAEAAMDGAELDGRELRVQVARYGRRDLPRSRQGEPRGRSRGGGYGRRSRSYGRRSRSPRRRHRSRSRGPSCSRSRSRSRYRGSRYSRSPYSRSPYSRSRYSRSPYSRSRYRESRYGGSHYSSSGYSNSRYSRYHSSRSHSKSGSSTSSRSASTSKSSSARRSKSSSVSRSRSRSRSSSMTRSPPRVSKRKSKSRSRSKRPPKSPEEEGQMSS

[3] = target: T3, GST-tagged SRSF7 (UniProt Q16629)
T3 sequence: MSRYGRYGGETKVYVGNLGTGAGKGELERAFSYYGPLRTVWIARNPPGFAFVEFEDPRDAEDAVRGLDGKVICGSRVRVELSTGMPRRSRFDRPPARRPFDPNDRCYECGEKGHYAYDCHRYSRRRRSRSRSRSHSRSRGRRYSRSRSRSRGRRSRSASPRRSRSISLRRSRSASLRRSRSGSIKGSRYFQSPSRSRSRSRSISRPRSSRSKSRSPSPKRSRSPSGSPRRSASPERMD

[4] = target: T4, FLAG-tagged SRSF11 (UniProt Q05519)
T4 sequence: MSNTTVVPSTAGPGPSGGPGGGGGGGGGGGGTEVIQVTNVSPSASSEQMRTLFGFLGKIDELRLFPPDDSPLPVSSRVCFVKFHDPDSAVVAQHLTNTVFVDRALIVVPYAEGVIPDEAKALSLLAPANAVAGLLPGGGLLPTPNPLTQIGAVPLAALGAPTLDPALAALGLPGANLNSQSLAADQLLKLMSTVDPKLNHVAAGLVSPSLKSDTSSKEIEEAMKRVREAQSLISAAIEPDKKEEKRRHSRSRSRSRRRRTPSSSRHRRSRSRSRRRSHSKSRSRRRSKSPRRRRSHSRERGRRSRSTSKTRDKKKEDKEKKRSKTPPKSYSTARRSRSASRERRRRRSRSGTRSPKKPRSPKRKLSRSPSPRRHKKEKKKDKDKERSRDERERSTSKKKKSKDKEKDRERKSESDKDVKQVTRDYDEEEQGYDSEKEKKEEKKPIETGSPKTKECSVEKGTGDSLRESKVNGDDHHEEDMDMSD

[5] = target: T5, FLAG-tagged SRSF4 (UniProt Q08170)
T5 sequence: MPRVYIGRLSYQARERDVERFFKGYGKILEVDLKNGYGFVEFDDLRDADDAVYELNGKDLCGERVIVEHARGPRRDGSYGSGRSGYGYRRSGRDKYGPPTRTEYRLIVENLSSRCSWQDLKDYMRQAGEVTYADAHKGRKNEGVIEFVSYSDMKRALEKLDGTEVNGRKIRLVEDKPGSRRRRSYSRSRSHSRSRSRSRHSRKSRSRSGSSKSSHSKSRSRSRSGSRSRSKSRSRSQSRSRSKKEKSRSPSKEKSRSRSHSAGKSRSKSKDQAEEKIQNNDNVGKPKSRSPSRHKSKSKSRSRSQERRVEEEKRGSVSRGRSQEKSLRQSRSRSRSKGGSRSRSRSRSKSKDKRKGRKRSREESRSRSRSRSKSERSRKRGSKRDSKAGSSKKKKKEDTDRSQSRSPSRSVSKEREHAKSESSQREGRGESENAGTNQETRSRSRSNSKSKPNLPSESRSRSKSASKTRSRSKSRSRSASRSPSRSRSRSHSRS

[6] = target: T6, FLAG-tagged SRSF7 (UniProt Q16629)
T6 sequence: T3 sequence

Measured: binding

B1: HIS-tagged Aurora-A (enzyme, UniProt O14965 1-403)
chain: MDRSKENCISGPVKATAPVGGPKRVLVTQQFPCQNPLPVNSGQAQRVLCPSNSSQRIPLQAQKLVSSHKPVQNQKQKQLQATSVPHPVSRPLNNTQKSKQPLPSAPENNPEEELASKQKNEESKKRQWALEDFEIGRPLGKGKFGNVYLAREKQSKFILALKVLFKAQLEKAGVEHQLRREVEIQSHLRHPNILRLYGYFHDATRVYLILEYAPLGTVYRELQKLSKFDEQRTATYITELANALSYCHSKRVIHRDIKPENLLLGSAGELKIADFGWSVHAPSSRRTTLCGTLDYLPPEMIEGRMHDEKVDLWSLGVLCYEFLVGKPPFEANTYQETYKRISRVEFTFPDFVTEGARDLISRLLKHNPSQRPMLREVLEHPWITANSSKPSNCQNKESASKQS
binds: all assays above
